# In PMC10580587:
# By UniProt entry, the sequences of proteins in these tests, tags left out.
# UniProt P84022: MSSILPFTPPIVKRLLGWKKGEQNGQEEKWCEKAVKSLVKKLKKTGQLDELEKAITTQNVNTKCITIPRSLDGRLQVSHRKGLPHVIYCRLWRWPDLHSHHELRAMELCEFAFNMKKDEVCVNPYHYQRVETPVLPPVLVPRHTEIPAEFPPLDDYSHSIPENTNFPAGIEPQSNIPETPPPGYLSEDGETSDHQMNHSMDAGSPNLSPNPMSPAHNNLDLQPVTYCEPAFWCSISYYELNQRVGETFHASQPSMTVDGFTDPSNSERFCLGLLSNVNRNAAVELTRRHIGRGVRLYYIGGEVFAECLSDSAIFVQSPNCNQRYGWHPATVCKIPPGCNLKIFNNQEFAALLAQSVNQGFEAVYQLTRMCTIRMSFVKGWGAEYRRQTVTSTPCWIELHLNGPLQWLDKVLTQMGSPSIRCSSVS
# Results are given in words; binding and its absence hold for the method and conditions named. Binding seen in cells or lysates may run through a third protein. Sequences can lack the tags named with a protein.
# B1: HA-tagged CSRP2BP (protein, UniProt Q9H8E8 1-782)
# chain: MDSSIHLSSLISRHDDEATRTSTSEGLEEGEVEGETLLIVESEDQASVDLSHDQSGDSLNSDEGDVSWMEEQLSYFCDKCQKWIPASQLREQLSYLKGDNFFRFTCSDCSADGKEQYERLKLTWQQVVMLAMYNLSLEGSGRQGYFRWKEDICAFIEKHWTFLLGNRKKTSTWWSTVAGCLSVGSPMYFRSGAQEFGEPGWWKLVHNKPPTMKPEGEKLSASTLKIKAASKPTLDPIITVEGLRKRASRNPVESAMELKEKRSRTQEAKDIRRAQKEAAGFLDRSTSSTPVKFISRGRRPDVILEKGEVIDFSSLSSSDRTPLTSPSPSPSLDFSAPGTPASHSATPSLLSEADLIPDVMPPQALFHDDDEMEGDGVIDPGMEYVPPPAGSVASGPVVGVRKKVRGPEQIKQEVESEEEKPDRMDIDSEDTDSNTSLQTRAREKRKPQLEKDTKPKEPRYTPVSIYEEKLLLKRLEACPGAVAMTPEARRLKRKLIVRQAKRDRGLPLFDLDQVVNAALLLVDGIYGAKEGGISRLPAGQATYRTTCQDFRILDRYQTSLPSRKGFRHQTTKFLYRLVGSEDMAVDQSIVSPYTSRILKPYIRRDYETKPPKLQLLSQIRSHLHRSDPHWTPEPDAPLDYCYVRPNHIPTINSMCQEFFWPGIDLSECLQYPDFSVVVLYKKVIIAFGFMVPDVKYNEAYISFLFVHPEWRRAGIATFMIYHLIQTCMGKDVTLHVSASNPAMLLYQKFGFKTEEYVLDFYDKYYPLESTECKHAFFLRLRR
# Biological target: flag-HA-tagged SMAD3 (UniProt P84022)
# Assay: co-IP; Hela cells cotransfected with flag-HA-tagged SMAD3 or SMAD4 and HA-tagged CSRP2BP; lysate incubated with anti-flag antibody (or control normal IgG) at 4 °C for 2 h, precipitated with protein A/G; Western blotting with anti-HA antibody
binder,measurement,value
B1,binding,no binding
